# PubChem BioAssay AID1259254 | NCATS | 2017
# Assay: 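Finding genes that stop cells copying their DNA twice in one cycle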 (primary screen)
# Cell system: human HCT116 colorectal cancer cells
# Knock-down reagent: single siRNA against human genes
# Time to read-out: 3 days
# Measurement: 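Imaged Hoechst DNA stain sorts each cell into a cycle phase by DNA amount; per plate, G2 fraction set to 0% for non-targeting and 100% for GMNN siRNA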
# Direction: G2 robust z-score and G2 cells, % of GMNN control: higher = more G2 cells, more excess DNA replication; raw share of cells in G2: higher = larger share of cells with G2 DNA content
# Rule for the call: 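Active siRNAs have a G2 robust z of 5 or more median absolute deviations over the median, which in these data means about 38% or higher of GMNN control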
# In all, the deposit lists about 59,000 reagents; below is an unselected part. In the full data, about 1,550 (2.6%) got an active call. 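G2 share is only a proxy for re-replication; each gene was hit by three separate siRNAs, and active genes were retested.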 The raw values are shown without normalisation. Unmarked entries are inactive. The numbers tell different reagents against one gene apart. The record does not give: the amount of reagent.
G2 robust z-score,"G2 cells, % of GMNN control",raw share of cells in G2 (%),gene,siRNA no.
0.605,7.22,6.57,LRP1B (LDL receptor related protein 1B),1
-0.555,-0.934,5.53,LRP1B (LDL receptor related protein 1B),2
-1.07,-4.56,2.56,LRP1B (LDL receptor related protein 1B),3
0.887,9.21,9.14,GPR4 (G protein-coupled receptor 4),1
0.38,5.64,6.49,GPR4 (G protein-coupled receptor 4),2
0.069,3.45,4.33,GPR4 (G protein-coupled receptor 4),3
-0.327,0.67,4.05,"MUC21 (mucin 21, cell surface associated)",1
0.56,6.91,6.26,"MUC21 (mucin 21, cell surface associated)",2
-0.0477,2.63,5.88,"MUC21 (mucin 21, cell surface associated)",3
0.341,5.36,5.61,"SPATA31F2P (SPATA31 subfamily F member 2, pseudogene)",1
-0.61,-1.32,2.83,"SPATA31F2P (SPATA31 subfamily F member 2, pseudogene)",2
-0.58,-1.11,4.16,"SPATA31F2P (SPATA31 subfamily F member 2, pseudogene)",3
-0.162,1.83,3.82,BCL2L11 (BCL2 like 11),1
-0.7,-1.96,3.96,BCL2L11 (BCL2 like 11),2
1.51,13.6,10.3,BCL2L11 (BCL2 like 11),3
-0.12,2.13,4.59,EXOSC8 (exosome component 8),1
1.18,11.3,7.93,EXOSC8 (exosome component 8),2
1.18,11.3,10.9,EXOSC8 (exosome component 8),3
-0.866,-3.13,2.91,OR13H1 (olfactory receptor family 13 subfamily H member 1),1
-0.329,0.656,3.55,OR13H1 (olfactory receptor family 13 subfamily H member 1),2
1.27,11.9,8.99,OR13H1 (olfactory receptor family 13 subfamily H member 1),3
0.185,4.27,6.18,DUSP29 (dual specificity phosphatase 29),1
4.57,35.2,14.9,DUSP29 (dual specificity phosphatase 29),2
0.0179,3.09,4.43,DUSP29 (dual specificity phosphatase 29),3
-0.245,1.24,4.01,ZNF850-DT (ZNF850 divergent transcript),1
2.77,22.4,10.8,ZNF850-DT (ZNF850 divergent transcript),2
-0.872,-3.17,2.4,ZNF850-DT (ZNF850 divergent transcript),3
-0.493,-0.5,3.03,LMO7 (LIM domain 7),1
2.96,23.8,14.9,LMO7 (LIM domain 7),2
-0.84,-2.94,4.22,LMO7 (LIM domain 7),3

Next part (9 carried over from the part before).
G2 robust z-score,"G2 cells, % of GMNN control",raw share of cells in G2 (%),gene,siRNA no.
0.185,4.27,6.18,DUSP29 (dual specificity phosphatase 29),1
4.57,35.2,14.9,DUSP29 (dual specificity phosphatase 29),2
0.0179,3.09,4.43,DUSP29 (dual specificity phosphatase 29),3
-0.245,1.24,4.01,ZNF850-DT (ZNF850 divergent transcript),1
2.77,22.4,10.8,ZNF850-DT (ZNF850 divergent transcript),2
-0.872,-3.17,2.4,ZNF850-DT (ZNF850 divergent transcript),3
-0.493,-0.5,3.03,LMO7 (LIM domain 7),1
2.96,23.8,14.9,LMO7 (LIM domain 7),2
-0.84,-2.94,4.22,LMO7 (LIM domain 7),3
3.75,29.3,17.1,MYL5 (myosin light chain 5),1
2.89,23.3,10.9,MYL5 (myosin light chain 5),2
0.0993,3.67,6.78,MYL5 (myosin light chain 5),3
0.37,5.57,7.26,EIF4G1 (eukaryotic translation initiation factor 4 gamma 1),1
0.466,6.25,7.64,EIF4G1 (eukaryotic translation initiation factor 4 gamma 1),2
2.14,18,10.1,EIF4G1 (eukaryotic translation initiation factor 4 gamma 1),3
-0.829,-2.86,3.19,NLGN3 (neuroligin 3),1
1.75,15.3,12.9,NLGN3 (neuroligin 3),2
-0.856,-3.05,2.63,NLGN3 (neuroligin 3),3
-0.546,-0.873,3.57,SLC35A3,1
1.76,15.4,12.5,SLC35A3,2
-0.589,-1.18,3.76,SLC35A3,3
0.567,6.96,7.44,MS4A3 (membrane spanning 4-domains A3),1
0.248,4.71,5.72,MS4A3 (membrane spanning 4-domains A3),2
-1.29,-6.09,2.77,MS4A3 (membrane spanning 4-domains A3),3
2.49,20.5,10.4,PHLDA3 (pleckstrin homology like domain family A member 3),1
0.667,7.66,7.29,PHLDA3 (pleckstrin homology like domain family A member 3),2
-0.572,-1.06,3.48,PHLDA3 (pleckstrin homology like domain family A member 3),3
1.09,10.7,7.69,GJB1 (gap junction protein beta 1),1
-0.595,-1.22,4.28,GJB1 (gap junction protein beta 1),2
4.39,33.8,15.4,GJB1 (gap junction protein beta 1),3
0.218,4.5,6.83,PIP5KL1 (phosphatidylinositol-4-phosphate 5-kinase like 1),1
3.97,30.9,15.2,PIP5KL1 (phosphatidylinositol-4-phosphate 5-kinase like 1),2
-0.498,-0.536,3.51,PIP5KL1 (phosphatidylinositol-4-phosphate 5-kinase like 1),3
2.94,23.7,12.9,HEBP1 (heme binding protein 1),1
-0.0756,2.44,5.47,HEBP1 (heme binding protein 1),2
-0.227,1.37,3.68,HEBP1 (heme binding protein 1),3
0.33,5.29,8.13,IDI2 (isopentenyl-diphosphate delta isomerase 2),1
0.67,7.68,8.26,IDI2 (isopentenyl-diphosphate delta isomerase 2),2
0.166,4.13,6.04,IDI2 (isopentenyl-diphosphate delta isomerase 2),3
-0.464,-0.295,3.53,HMGB1P22 (high mobility group box 1 pseudogene 22),1
0.811,8.67,6.39,HMGB1P22 (high mobility group box 1 pseudogene 22),2
-0.771,-2.46,2.43,HMGB1P22 (high mobility group box 1 pseudogene 22),3
-0.761,-2.39,1.68,FAM220A (family with sequence similarity 220 member A),1
-1.53,-7.79,1.52,FAM220A (family with sequence similarity 220 member A),2
0.645,7.51,5.68,FAM220A (family with sequence similarity 220 member A),3
-0.418,0.023,5.57,USP19 (ubiquitin specific peptidase 19),1
-0.153,1.89,5.58,USP19 (ubiquitin specific peptidase 19),2
-0.722,-2.11,3.12,USP19 (ubiquitin specific peptidase 19),3
-0.343,0.555,5.88,PDIA2 (protein disulfide isomerase family A member 2),1
-1.24,-5.76,2.31,PDIA2 (protein disulfide isomerase family A member 2),2
0.697,7.87,7.08,PDIA2 (protein disulfide isomerase family A member 2),3
8.46 (active),62.5,28.2,HSPA9 (heat shock protein family A (Hsp70) member 9),1
-0.281,0.991,5.31,HSPA9 (heat shock protein family A (Hsp70) member 9),2
-0.421,0.00722,3.11,HSPA9 (heat shock protein family A (Hsp70) member 9),3
-0.893,-3.32,2.77,SLC34A2,1
1.04,10.3,10.5,SLC34A2,2
-0.113,2.17,6.64,SLC34A2,3
-0.573,-1.06,3.81,KRT35 (keratin 35),1
4.57,35.1,19.1,KRT35 (keratin 35),2
1.03,10.2,8.74,KRT35 (keratin 35),3
0.233,4.61,7.02,SCYL2 (SCY1 like pseudokinase 2),1
-0.579,-1.11,4.79,SCYL2 (SCY1 like pseudokinase 2),2
-0.992,-4.01,2.4,SCYL2 (SCY1 like pseudokinase 2),3
1.58,14.1,10.3,PCNX2 (pecanex 2),1
-0.235,1.31,4.88,PCNX2 (pecanex 2),2
-0.983,-3.95,1.3,PCNX2 (pecanex 2),3
